Reference: publication PMC9943860
These are yes or no findings as the source states them, for the method shown. In cells and extracts the contact can be indirect. Where a sequence is shown, tags or fusion partners need not be part of it.

By UniProt entry, the sequences of proteins in these tests, tags left out. Where a name states a change or a piece, a line headed by the entry shows the natural chain unless it says otherwise.
UniProt P29466: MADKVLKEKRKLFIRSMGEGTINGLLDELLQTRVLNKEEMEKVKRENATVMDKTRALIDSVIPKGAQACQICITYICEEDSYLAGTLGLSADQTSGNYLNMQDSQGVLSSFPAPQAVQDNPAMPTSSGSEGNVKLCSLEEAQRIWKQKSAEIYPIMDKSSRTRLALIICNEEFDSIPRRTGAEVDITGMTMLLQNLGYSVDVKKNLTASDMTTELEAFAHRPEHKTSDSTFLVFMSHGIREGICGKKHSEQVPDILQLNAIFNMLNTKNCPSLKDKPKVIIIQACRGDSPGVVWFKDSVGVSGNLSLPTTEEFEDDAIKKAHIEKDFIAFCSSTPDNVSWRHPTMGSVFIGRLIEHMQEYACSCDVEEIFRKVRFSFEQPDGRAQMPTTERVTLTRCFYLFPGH

Target: T1, wildtype GSDMA with a C-terminal FLAG tag (UniProt Q96QA5)
T1 sequence: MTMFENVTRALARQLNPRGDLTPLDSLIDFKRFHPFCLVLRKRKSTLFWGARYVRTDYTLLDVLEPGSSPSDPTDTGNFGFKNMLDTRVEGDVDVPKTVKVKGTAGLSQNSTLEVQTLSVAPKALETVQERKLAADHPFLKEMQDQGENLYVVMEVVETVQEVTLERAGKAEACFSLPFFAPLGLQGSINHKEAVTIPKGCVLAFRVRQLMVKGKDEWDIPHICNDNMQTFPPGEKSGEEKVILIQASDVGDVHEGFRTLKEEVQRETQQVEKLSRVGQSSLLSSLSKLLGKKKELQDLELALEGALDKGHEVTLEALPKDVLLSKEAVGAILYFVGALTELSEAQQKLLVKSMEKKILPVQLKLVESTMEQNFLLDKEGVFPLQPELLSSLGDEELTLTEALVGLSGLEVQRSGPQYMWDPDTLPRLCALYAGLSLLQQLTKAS
Assay: co-IP; HEK293T cotransfected with FLAG-tagged gasdermin and caspase-1 C285A; about 16 h after transfection lysed in Triton lysis buffer (150 mM NaCl, 50 mM Tris pH 7.4, 1% Triton X-100); Anti-FLAG M2 Affinity gel overnight; washed three times; blotted for caspase-1

- binding: no binding
Substance: catalytic dead caspase-1 (Caspase-1 C285A) (from UniProt P29466 1-404) (enzyme)
